# Results taken from article PMC12660617.
# Chains of the proteins cited; added tags and fusions are not shown.
# UniProt O43474: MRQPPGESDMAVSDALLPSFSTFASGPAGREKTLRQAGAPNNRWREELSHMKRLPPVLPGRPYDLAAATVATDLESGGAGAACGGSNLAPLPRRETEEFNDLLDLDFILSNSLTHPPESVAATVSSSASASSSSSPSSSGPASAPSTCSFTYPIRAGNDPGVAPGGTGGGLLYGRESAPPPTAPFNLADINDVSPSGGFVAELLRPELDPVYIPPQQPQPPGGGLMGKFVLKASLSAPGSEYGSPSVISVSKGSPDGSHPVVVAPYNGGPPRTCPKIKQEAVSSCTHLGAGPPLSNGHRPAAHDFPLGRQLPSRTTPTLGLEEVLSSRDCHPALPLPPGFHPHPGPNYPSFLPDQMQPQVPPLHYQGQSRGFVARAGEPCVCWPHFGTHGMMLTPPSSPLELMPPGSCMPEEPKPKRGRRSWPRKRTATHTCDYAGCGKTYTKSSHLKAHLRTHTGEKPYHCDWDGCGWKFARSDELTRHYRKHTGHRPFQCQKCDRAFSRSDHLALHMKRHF
# UniProt Q9H4L4: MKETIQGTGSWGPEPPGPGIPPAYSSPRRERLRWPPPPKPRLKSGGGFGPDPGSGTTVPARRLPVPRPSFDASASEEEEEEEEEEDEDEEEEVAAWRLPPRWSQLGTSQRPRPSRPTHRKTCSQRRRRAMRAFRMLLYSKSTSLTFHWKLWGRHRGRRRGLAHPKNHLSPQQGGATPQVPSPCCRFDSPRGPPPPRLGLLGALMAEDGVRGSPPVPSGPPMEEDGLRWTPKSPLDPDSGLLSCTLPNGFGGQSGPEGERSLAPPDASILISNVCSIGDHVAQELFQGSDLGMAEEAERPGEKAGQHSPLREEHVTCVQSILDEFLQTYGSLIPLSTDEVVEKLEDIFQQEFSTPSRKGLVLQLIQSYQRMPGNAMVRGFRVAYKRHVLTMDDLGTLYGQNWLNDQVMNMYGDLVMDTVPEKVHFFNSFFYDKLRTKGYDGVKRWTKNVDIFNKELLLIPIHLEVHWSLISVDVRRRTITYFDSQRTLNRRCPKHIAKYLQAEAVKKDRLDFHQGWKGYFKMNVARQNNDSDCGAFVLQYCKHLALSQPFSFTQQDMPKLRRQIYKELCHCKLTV
# These are yes or no findings as the source states them, for the method shown. In cells and extracts the contact can be indirect. Some results given as binding are weak or reduced against the parent protein; the word gives no strength.
# Molecular target: Flag-KLF4 (human) (UniProt O43474)
# Assay: co-IP; HEK293T cells transfected with GFP-SENP3 and/or Flag-KLF4 plasmids for 36 h; Pierce IP Lysis buffer with protease inhibitors and 20 mM N-ethylmaleimide; anti-KLF4 or anti-Flag magnetic beads overnight at 4 °C; immunoblotting
substance,measurement,value
GFP-SENP3 (from UniProt Q9H4L4 1-574) (enzyme),binding,binds
